No constants are given. Whether binding was seen depends on the method and setting. Binding seen in cells or lysates may run through a third protein. Some binding calls cover weakened binding; strength is not graded here. Where a sequence is shown, tags or fusion partners need not be part of it.
Legend:
[1] = biological target: T1, GST-Par4DD fusion protein (Par4 amino acids 250-342) (human) (UniProt Q96IZ0); test: GST pull-down: in vitro translated 35S-labelled protein on GST-Par4DD immobilised on glutathione sepharose, SDS-PAGE, fluorography
T1 sequence: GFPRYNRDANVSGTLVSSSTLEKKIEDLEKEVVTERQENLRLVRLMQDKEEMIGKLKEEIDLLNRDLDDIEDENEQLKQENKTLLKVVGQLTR

Chains of the proteins cited; added tags and fusions are not shown. Lines headed by an entry give the natural chain unless they say otherwise; changes in a name come on top.
UniProt P13500: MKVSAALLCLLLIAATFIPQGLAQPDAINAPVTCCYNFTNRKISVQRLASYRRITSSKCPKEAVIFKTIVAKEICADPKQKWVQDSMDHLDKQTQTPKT
UniProt Q99616: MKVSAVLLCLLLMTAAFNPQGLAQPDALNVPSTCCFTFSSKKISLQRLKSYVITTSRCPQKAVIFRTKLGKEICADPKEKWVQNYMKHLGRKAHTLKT
UniProt O00585: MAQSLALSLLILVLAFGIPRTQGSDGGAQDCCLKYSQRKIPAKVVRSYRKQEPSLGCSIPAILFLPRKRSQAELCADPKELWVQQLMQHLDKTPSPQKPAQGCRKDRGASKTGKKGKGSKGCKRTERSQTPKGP

[2] = biological target: T2, GST-THAP1 fusion protein (THAP1 amino acids 1-213) (human); test: GST pull-down, 35S-labelled in vitro translated mutant
T2 sequence: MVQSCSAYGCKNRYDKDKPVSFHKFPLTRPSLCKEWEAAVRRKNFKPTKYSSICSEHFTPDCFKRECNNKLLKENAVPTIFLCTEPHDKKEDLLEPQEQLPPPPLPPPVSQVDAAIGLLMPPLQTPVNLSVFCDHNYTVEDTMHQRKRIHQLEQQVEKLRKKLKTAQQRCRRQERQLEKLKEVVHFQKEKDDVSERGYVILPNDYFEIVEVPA

[3] = biological target: T1, GST-Par4DD fusion protein (Par4 amino acids 250-342) (human); test: as above
[4] = biological target: T2, GST-THAP1 fusion protein (THAP1 amino acids 1-213) (human); test: GST pull-down: in vitro translated 35S-labelled protein on GST-THAP1 immobilised on glutathione sepharose, SDS-PAGE, fluorography
chemokine CCL2 = chemokine CCL2 (UniProt P13500); test: GST pull-down, 35S-labelled in vitro translated chemokine
chemokine CCL13 = chemokine CCL13 (UniProt Q99616); test: as above
[5] = biological target: human chemokine SLC/CCL21, mature form (amino acids 24-134) (human) (UniProt O00585); test: as above

Measured: binding

B1: THAP1-C2 deletion mutant (amino acids 120-213) (protein)
chain: MPPLQTPVNLSVFCDHNYTVEDTMHQRKRIHQLEQQVEKLRKKLKTAQQRCRRQERQLEKLKEVVHFQKEKDDVSERGYVILPNDYFEIVEVPA
binds: [1] | [2] | [3] | [4]

B2: THAP1-C1 deletion mutant (amino acids 90-213) (protein)
chain: KEDLLEPQEQLPPPPLPPPVSQVDAAIGLLMPPLQTPVNLSVFCDHNYTVEDTMHQRKRIHQLEQQVEKLRKKLKTAQQRCRRQERQLEKLKEVVHFQKEKDDVSERGYVILPNDYFEIVEVPA
binds: [1] | [2] | [3] | [4]

B3: THAP1-N3 deletion mutant (amino acids 1-192) (protein)
chain: MVQSCSAYGCKNRYDKDKPVSFHKFPLTRPSLCKEWEAAVRRKNFKPTKYSSICSEHFTPDCFKRECNNKLLKENAVPTIFLCTEPHDKKEDLLEPQEQLPPPPLPPPVSQVDAAIGLLMPPLQTPVNLSVFCDHNYTVEDTMHQRKRIHQLEQQVEKLRKKLKTAQQRCRRQERQLEKLKEVVHFQKEKDD
binds: [1] | [2] | [3] | [4]

B4: GST-THAP7 233-309 (chemokine-binding domain of THAP7) (protein, not shown: a dimerising Fc or GST)
chain: QVGSALLWKRRAEAALDALDKAQRQLQACKRREQRLRLRLTKLQQERAREKRAQADARQTLKEHVQDFAMQLSSSMA
binds: chemokine CCL2 | chemokine CCL13 | [5]

B5: GST-THAP8 125-274 (chemokine-binding domain of THAP8) (protein, not shown: a dimerising Fc or GST)
chain: SGPVRLVVLGPTSGSPKTVATMLLTPLAPAPTPERSQPEVPAQQAQTGLGPVLGALQRRVRRLQRCQERHQAQLQALERLAQQLHGESLLARARRGLQRLTTAQTLGPEESQTFTIICGGPDIAMVLAQDPAPATVDAKPELLDTRIPSA
binds: chemokine CCL2 | chemokine CCL13 | [5]

B6: THAP1-C3 deletion mutant (amino acids 143-213) (protein)
chain: MHQRKRIHQLEQQVEKLRKKLKTAQQRCRRQERQLEKLKEVVHFQKEKDDVSERGYVILPNDYFEIVEVPA
binds: [1] | [2] | [3] | [4]

— patent US20060270596A1
